For some of these results: The comparison behind a weaker result is the experiment's own reference, which may not be listed here. For some of these results: Where a protein sequence is shown, tags need not be part of it.

Data set [1] deals with VEGF (negative control protein). The experiment in a line: MST. The following applies: 2'-F pyrimidines; weak binding indicated, not fittable; purified recombinant protein; protein details: labeled, R&D Systems; variant of S5.
In data set [2] the target is T1, CD5L (CD5 antigen-like) (Homo sapiens) (UniProt O43866).
T1 sequence (looked up, limits assumed): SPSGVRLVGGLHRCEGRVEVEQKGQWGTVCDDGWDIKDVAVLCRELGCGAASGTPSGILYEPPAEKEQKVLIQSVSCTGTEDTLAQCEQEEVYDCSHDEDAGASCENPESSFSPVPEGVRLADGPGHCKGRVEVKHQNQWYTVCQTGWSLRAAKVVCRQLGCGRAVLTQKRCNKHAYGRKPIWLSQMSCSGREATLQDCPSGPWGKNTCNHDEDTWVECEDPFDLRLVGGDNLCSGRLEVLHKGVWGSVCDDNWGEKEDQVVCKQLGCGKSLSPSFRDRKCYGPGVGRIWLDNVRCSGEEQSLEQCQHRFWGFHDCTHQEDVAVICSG
The experiment in a line: activity in cells. The following applies: 2'-F pyrimidines; reduces pAKT, tube formation and migration in bevacizumab-resistant RF24 cells; purified recombinant protein; variant of S76; dose not given here.

Regarding “AGACAAGAAUAAACGCUCAAAAAGAGAGAAGGAUAAGAACCAUCAAAAAGAGAGAGCAGAGCCAGAUUCGACAGGAGGCUCACAACAGGC [S23]”, in data set [1], the binding result is “binds more weakly”.

For the sequence “AGGUUGCAGCGUUCGACAGGAGGCUCACAACAG [S76.T]”, the “functional effect of the aptamer” value in data set [2] was “active”.

“AGACAAGAAUAAACGCUCAAUUAUCGGAGAGGCCGAACAGAUACUUCGUUAGACACCUUGCAGCGUUCGACAGGAGGC [S11]”: the binding result in data set [1] was “binds more weakly”.

Regarding “AGACAAGAAUAAACGCUCAAUUAUCGGAGAGGCCGAACAGAUACUUCGUUAGACAGGUUGCAGCGUUCGACAGGAGGCUCACAACAGGC [S76]”, the binding result in data set [1] is “binds more weakly”.
